PubChem BioAssay AID1259405 – NCATS | 2018

Screen: 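Mouse-designed siRNAs used to find CHO productivity engineering targets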 (primary screen)
Cell system: Chinese hamster CHO-K1 ovary cells with stable secreted eGFP expression
Reagent: single siRNA against mouse genes, 0.8 pmol siRNA per well (2 µl of 400 nM stock)
Duration: 3 days
Measurement: 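Per-well intracellular GFP measured by laser scanning cytometry, plus viability from ATP luminescence, each relative to plate median of non-targeting control wells, in %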
Scale: GFP, % of control: higher = more GFP per well, higher productivity; viability (ATP), % of control: higher = more viable cells (more ATP)
Rule for the call: 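a knock-down is called active if GFP reaches 120% or more of non-targeting control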
Here is a random part of about 50,000 deposited reagents. Over the whole deposit, about 4,000 (8%) got an active call. 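Mouse siRNA library applied to hamster cells; one well for each siRNA.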 Reagents against one gene are numbered here. No sequences are given here.

no.	gene	siRNA no.	GFP, % of control	viability (ATP), % of control	Outcome
1	Dpysl4 (GeneID 26757)	1	109	97.7	inactive
2	Dpysl4 (GeneID 26757)	2	101	124	inactive
3	Dpysl4 (GeneID 26757)	3	39	51.3	inactive
4	Colec12 (GeneID 140792)	1	73.8	41.8	inactive
5	Colec12 (GeneID 140792)	2	47.2	62.3	inactive
6	Colec12 (GeneID 140792)	3	38.2	57.7	inactive
7	Leo1 (GeneID 235497)	1	88.3	96.9	inactive
8	Leo1 (GeneID 235497)	2	71.4	54.2	inactive
9	Leo1 (GeneID 235497)	3	110	61.9	inactive
10	Bud31 (GeneID 231889)	1	76	84.8	inactive
11	Bud31 (GeneID 231889)	2	68.1	49.3	inactive
12	Bud31 (GeneID 231889)	3	95.5	116	inactive
13	Vmn1r17 (GeneID 171189)	1	11.7	9.13	inactive
14	Vmn1r17 (GeneID 171189)	2	55.3	60.6	inactive
15	Vmn1r17 (GeneID 171189)	3	61.8	93.8	inactive
16	Crkl (GeneID 12929)	1	65.9	86.7	inactive
17	Crkl (GeneID 12929)	2	71.6	75.1	inactive
18	Crkl (GeneID 12929)	3	107	138	inactive
19	Apod (GeneID 11815)	1	162	105	active
20	Apod (GeneID 11815)	2	207	102	active
21	Apod (GeneID 11815)	3	58.7	70.9	inactive
22	Trappc9 (GeneID 76510)	1	97.5	65.9	inactive
23	Trappc9 (GeneID 76510)	2	158	58.4	active
24	Trappc9 (GeneID 76510)	3	87.6	100	inactive
25	Ccdc120 (GeneID 54648)	1	79.1	75.2	inactive
26	Ccdc120 (GeneID 54648)	2	38.7	33.6	inactive
27	Ccdc120 (GeneID 54648)	3	65	61.2	inactive
28	Or2j6 (GeneID 258955)	1	68	42.8	inactive
29	Or2j6 (GeneID 258955)	2	104	83.5	inactive
30	Or2j6 (GeneID 258955)	3	64.2	64.2	inactive
31	Gm4861 (GeneID 229862)	1	91.5	80.3	inactive
32	Gm4861 (GeneID 229862)	2	119	125	inactive
33	Gm4861 (GeneID 229862)	3	86.8	102	inactive
34	Nup155 (GeneID 170762)	1	84.3	102	inactive
35	Nup155 (GeneID 170762)	2	62.3	63.5	inactive
36	Nup155 (GeneID 170762)	3	96.1	108	inactive
37	Pax7 (GeneID 18509)	1	80.1	79.2	inactive
38	Pax7 (GeneID 18509)	2	76.9	84.5	inactive
39	Cd7 (GeneID 12516)	1	85.2	85.1	inactive
40	Cd7 (GeneID 12516)	2	39.5	39	inactive
41	Arfgap2 (GeneID 77038)	1	113	139	inactive
42	Arfgap2 (GeneID 77038)	2	80.4	80.9	inactive
43	Arfgap2 (GeneID 77038)	3	72	70.1	inactive
44	Or8k24 (GeneID 258386)	1	66.9	72.2	inactive
45	Or8k24 (GeneID 258386)	2	103	78.9	inactive
46	Or8k24 (GeneID 258386)	3	61.3	97.6	inactive
47	Farsb (GeneID 23874)	1	84.3	89.3	inactive
48	Farsb (GeneID 23874)	2	170	136	active
49	Farsb (GeneID 23874)	3	83.4	77.7	inactive
50	Klra5 (GeneID 16636)	1	67.4	75.6	inactive
51	Klra5 (GeneID 16636)	2	86.3	69.8	inactive
52	Klra5 (GeneID 16636)	3	99.4	95.1	inactive
53	Jmy (GeneID 57748)	1	45.2	60.9	inactive
54	Jmy (GeneID 57748)	2	72.4	79	inactive
55	Jmy (GeneID 57748)	3	79.9	86.8	inactive

Individual results from the entries so far.
Pax7 (GeneID 18509) #2, GFP, % of control → 76.9
Dpysl4 (GeneID 26757) #3, viability (ATP), % of control: 51.3
Pax7 (GeneID 18509) #1, GFP, % of control: 80.1
Entry of Ccdc120 (GeneID 54648) #3 in “Outcome”: inactive
Under “viability (ATP), % of control”, Arfgap2 (GeneID 77038) #1 shows 139
Under “Outcome”, Gm4861 (GeneID 229862) #1 is entered as inactive

Further entries follow:
no.	gene	siRNA no.	GFP, % of control	viability (ATP), % of control	Outcome
56	Cux2 (GeneID 13048)	1	97	56.6	inactive
57	Cux2 (GeneID 13048)	2	56.4	62.2	inactive
58	Cux2 (GeneID 13048)	3	99.3	102	inactive
59	Hyi (GeneID 68180)	1	77.5	75.2	inactive
60	Hyi (GeneID 68180)	2	92.1	84	inactive
61	Hyi (GeneID 68180)	3	112	131	inactive
62	1700010I14Rik (GeneID 66931)	1	95.6	87.2	inactive
63	1700010I14Rik (GeneID 66931)	2	72.5	81.3	inactive
64	1700010I14Rik (GeneID 66931)	3	24.7	42.7	inactive
65	Tbck (GeneID 271981)	1	131	68.8	active
66	Tbck (GeneID 271981)	2	52.5	55.2	inactive
67	Tbck (GeneID 271981)	3	50.3	82.4	inactive
68	Ch25h (GeneID 12642)	1	86	77.6	inactive
69	Ch25h (GeneID 12642)	2	91.6	43.1	inactive
70	Ch25h (GeneID 12642)	3	54.2	58.1	inactive
71	Plekha2 (GeneID 83436)	1	58.5	60	inactive
72	Plekha2 (GeneID 83436)	2	75.6	75.9	inactive
73	Plekha2 (GeneID 83436)	3	65.3	64.9	inactive
74	Vip (GeneID 22353)	1	71	65.5	inactive
75	Vip (GeneID 22353)	2	68.5	69.4	inactive
76	Vip (GeneID 22353)	3	109	51.8	inactive
77	Clca4a (GeneID 99663)	1	152	97.2	active
78	Clca4a (GeneID 99663)	2	60	79.3	inactive
79	Clca4a (GeneID 99663)	3	80.7	95.4	inactive
80	Neu1 (GeneID 18010)	1	72.6	62.6	inactive
81	Neu1 (GeneID 18010)	2	59.7	67.4	inactive
82	Neu1 (GeneID 18010)	3	50.5	54.7	inactive
83	Eif3m (GeneID 98221)	1	58.8	74.6	inactive
84	Eif3m (GeneID 98221)	2	41.1	52.5	inactive
85	Eif3m (GeneID 98221)	3	70.1	52.1	inactive
